Where a name gives a salt, the structure may show the parent alone. Some of the results follow. Cut-off read from the data, not from the text of the source: active = 0.7 or more and inactive = the rest. Many values rest on one well or one pass, so single values are uncertain.
System: MiaPaCa-2 CLSA-25
Assay: cell death relative to DMSO vehicle (fraction); higher = more cytotoxic
Conditions: 5 µM; treatment time 48 h; medium cystine 25 µM

SMILES | cell death
CCCCCCCC(=O)N[C@H](CN1CCCC1)[C@H](O)c1ccc2c(c1)OCCO2 [Eliglustat] | inactive: 0.0762
CN(CC(=O)O)C(=N)N [Creatine] | inactive: 0.164
Nc1ccc(C(=O)O)c(O)c1 [Aminopar] | inactive: 0.242
O=C(c1c2ccccc2cc2ccccc12)N1CCC(N2CCC[C@@H](C(=O)N3CCOCC3)C2)CC1 | inactive: 0.629
Cc1c(C(=O)NN2CCOCC2)nn(-c2ccc(Cl)cc2Cl)c1-c1ccc(I)cc1 | inactive: 0.169
COc1cn(-c2ccc(-n3cccn3)cc2F)nc(-c2ccnn2-c2ccccc2)c1=O | inactive: 0.0465
C=C(c1ccc(C(=O)O)cc1)c1cc2c(cc1C)C(C)(C)CCC2(C)C [Bexarotene] | inactive: 0.633
CCOC(=O)C1=C[C@]2(CC)CCCN3CCc4c(n1c1ccccc41)[C@@H]32 [Vinpocetine] | inactive: 0.077
C[C@H](CCC(=O)NCCS(=O)(=O)O)[C@H]1CC[C@H]2[C@@H]3[C@@H](O)C[C@@H]4C[C@H](O)CC[C@]4(C)[C@H]3CC[C@]12C [Tauroursodeoxycholic Acid] | inactive: 0.612
COc1ccc(-c2ccccc2)cc1NS(=O)(=O)c1cc(Cl)cc(Cl)c1O | inactive: 0.155
COC(=O)N[C@H](C(=O)N1CC2(CC2)C[C@H]1c1ncc(-c2ccc3c(c2)C(F)(F)c2cc(-c4ccc5nc([C@@H]6[C@H]7CC[C@H](C7)N6C(=O)[C@@H](NC(=O)OC)C(C)C)[nH]c5c4)ccc2-3)[nH]1)C(C)C [Ledipasvir acetone] | inactive: 0.643
Fc1ccc(-c2c3cccc(C(F)(F)F)c3nn2Cc2ccc(F)cc2Cl)cc1 | inactive: 0.482
Cn1c(=O)c2c(ncn2CC(O)CO)n(C)c1=O (stereo not given) [Diprophylline] | inactive: 0.277
CCCCc1nc(Cl)c(CO)n1Cc1ccc(-c2ccccc2-c2nnn[nH]2)cc1 [Losartan potassium] | inactive: 0.0136
O=C(O)C[C@H](O)C[C@H](O)/C=C/c1c(C2CC2)nc2ccccc2c1-c1ccc(F)cc1 [Pitavastatin calcium] | inactive: 0.587
Nc1ccccc1C(=O)C[C@H](N)C(=O)O [L-Kynurenine] | inactive: 0.0597
CC(C)c1cc(-c2n[nH]c(=O)n2-c2ccc3c(ccn3C)c2)c(O)cc1O [Ganetespib] | inactive: 0.197
O=C(CCNNC(=O)c1ccncc1)NCc1ccccc1 [Nialamide] | inactive: 0.263
Cc1ncc(C[n+]2csc(CCO)c2C)c(N)n1 [Thiamine hydrochloride] | inactive: 0.131
Cc1c(C(=O)NN2CCCCC2)nn(-c2ccc(Cl)cc2Cl)c1-c1ccc(Cl)cc1 [Rimonabant] | inactive: 0.199

A different layout for part of the listing above:
C=C(c1ccc(C(=O)O)cc1)c1cc2c(cc1C)C(C)(C)CCC2(C)C [Bexarotene]
  cell death: inactive: 0.633
COC(=O)N[C@H](C(=O)N1CC2(CC2)C[C@H]1c1ncc(-c2ccc3c(c2)C(F)(F)c2cc(-c4ccc5nc([C@@H]6[C@H]7CC[C@H](C7)N6C(=O)[C@@H](NC(=O)OC)C(C)C)[nH]c5c4)ccc2-3)[nH]1)C(C)C [Ledipasvir acetone]
  cell death: inactive: 0.643

The listing continues:

SMILES | cell death
O=C(O)c1ccc[nH]1 [Pyrrole-2-carboxylic acid] | inactive: 0.277
NC(=O)c1ncn([C@@H]2O[C@H](CO)[C@@H](O)[C@H]2O)n1 [Ribavirin] | inactive: 0.198
O=C(O)c1cccnc1 [Nicotinic acid] | active: 0.704
O=C(O)CNC(=O)c1c(O)c2ccccc2n(Cc2ccccc2)c1=O | inactive: 0.574
CCC(C)SSc1ncc[nH]1 (stereo not given) | inactive: 0.634
OCCN1C[C@H](O)[C@@H](O)[C@H](O)[C@H]1CO [Miglitol] | inactive: 0.619
C[N+](C)(C)C[C@H](O)CC(=O)O [L-Carnitine hydrochloride] | inactive: 0.232
Cc1ccccc1C(C(=O)NC1CCCCC1)N(C(=O)Cn1cnc2ccccc21)c1cccc(F)c1 (stereo not given) | inactive: 0.146
Cc1ncc(C[n+]2csc(CCOP(=O)(O)OP(=O)(O)O)c2C)c(N)n1 [Thiamine pyrophosphate] | inactive: 0.0372
COC(=O)C1=CO[C@@H](O[C@@H]2O[C@H](CO)[C@@H](O)[C@H](O)[C@H]2O)[C@@H]2[C@@H](C)[C@@H](O)C[C@H]12 [Loganin] | inactive: 0.217
CC(C)(Sc1cc(C(C)(C)C)c(O)c(C(C)(C)C)c1)Sc1cc(C(C)(C)C)c(OC(=O)CCC(=O)O)c(C(C)(C)C)c1 [Succinobucol] | inactive: 0.597
Cc1nccnc1N1CCCCC1 [Modaline sulfate] | inactive: 0.116
C[C@H]1C[C@H]2[C@@H]3CCC4=CC(=O)C=C[C@]4(C)[C@H]3C(=O)C[C@]2(C)[C@@]1(O)C(=O)CO [Meprednisone] | inactive: 0.0206
CC1(C)O[C@H]2CC(=O)OC[C@]23[C@H]2CC[C@@]4(C)[C@H](c5ccoc5)OC(=O)[C@H]5O[C@]54[C@]2(C)C(=O)C[C@@H]13 [Limonin] | inactive: -0.0155
CC(C)[C@H](N)C(=O)O [L-Valine] | inactive: 0.118
O=C(O[C@@H]1Cc2c(O)cc(O)cc2O[C@@H]1c1cc(O)c(O)c(O)c1)c1cc(O)c(O)c(O)c1 [(-)-Epigallocatechin Gallate] | inactive: 0.00401
CC(C)CC(N)=O [Isovaleramide] | inactive: 0.152
C[C@]12CC[C@H]3[C@@H](CC[C@@]45O[C@@H]4C(O)=C(C#N)C[C@]35C)[C@@H]1CC[C@@H]2O [Trilostane] | inactive: 0.124
COCCNC(=O)Nc1ccc2nc(-c3cccs3)c(-c3cccs3)nc2c1 [Ac-CoA Synthase Inhibitor1] | inactive: 0.142
N#Cc1c(O)c2c(-c3ccc(-c4ccccc4O)cc3)csc2[nH]c1=O | inactive: 0.212

Reference: the supplement of paper PMC12872613
